This note sets out measurements from PMC3701624, “Three-Dimensional Structure of Human NLRP10/PYNOD Pyrin Domain Reveals a Homotypic Interaction Site Distinct from Its Mouse Homologue” (PLoS ONE, 2013).

These are yes or no findings as the source states them, for the method shown.

The target in this assay is human NLRP10/PYNOD pyrin domain (residues 1-100) (human) (UniProt Q86W26). Briefly: SEC; huNLRP10 PYD alone, pH 7~8; both purified. (In gel filtration, larger molecules generally elute earlier.)

B1: human NLRP10/PYNOD pyrin domain (residues 1-100) (protein)
chain: MAMAKARKPREALLWALSDLEENDFKKLKFYLRDMTLSEGQPPLARGELEGLIPVDLAELLISKYGEKEAVKVVLKGLKVMNLLELVDQLSHICLHDYRE
B1: the binding result was “no binding”.
